Reference: the supplement of paper PMC4604168 (melanoma cell lines)
This is one part of the list. Many values rest on one well or one pass, so single values are uncertain.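 Imaging used 1,536-well plates; nuclei positive for cleaved PARP by antibody were divided by total DNA-stained nuclei to yield the apoptosis fraction. Doses for screening kept most cells viable, and cell lines differ markedly in resting and induced cleaved-PARP levels.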

Experiments:
Experiment in all cases: cleaved PARP positive nuclei fraction relative to DMSO control; melanoma cells; higher = more apoptosis
Conditions in all cases: library dose: low library concentration; 72 h
[1] = test system: 501Mel
[2] = test system: A101D
[3] = test system: A2058
[4] = test system: A375
[5] = test system: C32
[6] = test system: CBRC008 (line from a melanoma biopsy)
[7] = test system: CBRC014 (line from a melanoma biopsy)
[8] = test system: CBRC016 (line from a melanoma biopsy)
[9] = test system: CBRC017 (line from a melanoma biopsy)
[10] = test system: CBRC034 (line from a melanoma biopsy)
[11] = test system: COLO792
[12] = test system: COLO800
[13] = test system: COLO829
[14] = test system: G361
[15] = test system: IPC-298
[16] = test system: IST-MEL1
[17] = test system: LB2518-MEL
[18] = test system: LOXIMVI
[19] = test system: MEL-HO

| SMILES | cleaved PARP positive nuclei fraction [1] [%] | cleaved PARP positive nuclei fraction [2] [%] | cleaved PARP positive nuclei fraction [3] [%] | cleaved PARP positive nuclei fraction [4] [%] | cleaved PARP positive nuclei fraction [5] [%] | cleaved PARP positive nuclei fraction [6] [%] | cleaved PARP positive nuclei fraction [7] [%] | cleaved PARP positive nuclei fraction [8] [%] | cleaved PARP positive nuclei fraction [9] [%] | cleaved PARP positive nuclei fraction [10] [%] | cleaved PARP positive nuclei fraction [11] [%] | cleaved PARP positive nuclei fraction [12] [%] | cleaved PARP positive nuclei fraction [13] [%] | cleaved PARP positive nuclei fraction [14] [%] | cleaved PARP positive nuclei fraction [15] [%] | cleaved PARP positive nuclei fraction [16] [%] | cleaved PARP positive nuclei fraction [17] [%] | cleaved PARP positive nuclei fraction [18] [%] | cleaved PARP positive nuclei fraction [19] [%] |
| --- | --- | --- | --- | --- | --- | --- | --- | --- | --- | --- | --- | --- | --- | --- | --- | --- | --- | --- | --- |
| O=C(O)[C@@H]1[O][Sb](=[O])([O][Sb]2(=[O])[O][C@H]([C@H](O)CO)[C@H](O)[C@H](C(=O)O)[O]2)[O][C@H]([C@H](O)CO)[C@@H]1O (some centres undefined) [stibogluconate] + COCC[n+]1c2c(n(Cc3cnccn3)c1C)C(=O)c1ccccc1C2=O [YM155] (first compound 2 µM, partner dose 0.0004 µM) | 644 | 48.5 | 64.6 | 115 | 70.7 | 173 | 106 | 102 | 89.2 | 58.4 | 125 | 126 | 73.9 | 32.5 | 119 | 31.7 | 108 | 44.4 | 60.5 |
| Cc1cc(Nc2cc(N3CCN(C)CC3)nc(/C=C/c3ccccc3)n2)n[nH]1 + Nc1ncn([C@H]2C[C@H](O)[C@@H](CO)O2)c(=O)n1 [decitabine] (first compound 0.04 µM, partner dose 0.1 µM) | 102 | 67.2 | 143 | 115 | 72.6 | 62.3 | 108 | 154 | 122 | 77.4 | 107 | 124 | 165 | 28 | 66.4 | 80.7 | 128 | 154 | 79.2 |
| Cn1c(=O)n(-c2ccc(C(C)(C)C#N)cc2)c2c3cc(-c4cnc5ccccc5c4)ccc3ncc21 + Clc1ccc(Nc2nnc(Cc3ccncc3)c3ccccc23)cc1 [vatalanib] (first compound 0.004 µM, partner dose 2 µM) | 304 | 275 | 138 | 558 | 77.9 | 61.2 | 118 | 186 | 131 | 64.3 | 111 | 148 | 87.9 | 139 | 47.7 | 66.1 | 224 | 154 | 35.2 |
| C[C@@H](Oc1cc(-c2cnn(C3CCNCC3)c2)cnc1N)c1c(Cl)ccc(F)c1Cl [Crizotinib] + CC(=O)c1c(C)c2cnc(Nc3ccc(N4CCNCC4)cn3)nc2n(C2CCCC2)c1=O [palbociclib] (first compound 0.2 µM, partner dose 0.04 µM) | 194 | 89.1 | 255 | 253 | 88.2 | 33.9 | 261 | 51.6 | 102 | 43.2 | 69.1 | 82.8 | 72.4 | 41.4 | 91.2 | 126 | 52.4 | 105 | 122 |
| Nc1ncn([C@H]2C[C@H](O)[C@@H](CO)O2)c(=O)n1 [decitabine] + OCc1c[nH]c2ccccc12 [Indole-3-carbinol] (first compound 0.1 µM, partner dose 0.8 µM) | 44.4 | 95.8 | 58.1 | 128 | 69.9 | 248 | 102 | 153 | 87.4 | 77.5 | 65.9 | 41.2 | 101 | 226 | 62.2 | 150 | 101 | 129 | 188 |
| CO[C@H]1C[C@@H]2CC[C@@H](C)[C@@](O)(O2)C(=O)C(=O)N2CCCC[C@H]2C(=O)O[C@H]([C@H](C)C[C@@H]2CC[C@@H](OCCO)[C@H](OC)C2)CC(=O)[C@H](C)/C=C(\C)[C@@H](O)[C@@H](OC)C(=O)[C@H](C)C[C@H](C)/C=C/C=C/C=C/1C [everolimus] + Cn1c(Nc2ccc(C(F)(F)F)cc2)nc2cc(Oc3ccnc(-c4ncc(C(F)(F)F)[nH]4)c3)ccc21 [CHIR265] (first compound 0.02 µM, partner dose 0.08 µM) | 764 | 78.9 | 79.1 | 1520 | 168 | 285 | 85.6 | 41.1 | 119 | 74 | 249 | 114 | 68 | 357 | 316 | 131 | 215 | 158 | 104 |
| C[C@@H](Oc1cc(-c2cnn(C3CCNCC3)c2)cnc1N)c1c(Cl)ccc(F)c1Cl [Crizotinib] + CNC(=O)c1cc(Oc2ccc(NC(=O)Nc3ccc(Cl)c(C(F)(F)F)c3)cc2)ccn1 [sorafenib] (first compound 0.2 µM, partner dose 0.4 µM) | 228 | 93 | 243 | 78.6 | 118 | 59.7 | 111 | 116 | 82 | 87.6 | 68.7 | 48.3 | 125 | 126 | 51.7 | 62.3 | 263 | 57.5 | 120 |
| Nc1ccn([C@@H]2O[C@H](CO)[C@@H](O)C2(F)F)c(=O)n1 [gemcitabine] + CCCS(=O)(=O)Nc1ccc(F)c(C(=O)c2c[nH]c3ncc(Cl)cc23)c1F [PLX4720] (first compound 0.0004 µM, partner dose 0.08 µM) | 42.8 | 251 | 191 | 198 | 253 | 61 | 157 | 163 | 104 | 97.5 | 58.3 | 76.3 | 56.2 | 61.9 | 107 | 123 | 109 | 109 | 227 |
| CN1CCN(c2ccc3nc(-c4c(N)c5c(F)cccc5[nH]c4=O)[nH]c3c2)CC1 [Dovitinib] + Cn1nnc2c(C(N)=O)ncn2c1=O [temozolomide] (first compound 0.1 µM, partner dose 2 µM) | 124 | 52.3 | 93.1 | 113 | 92 | 98.6 | 105 | 113 | 81.2 | 61.8 | 30.7 | 89.1 | 89.9 | 71.2 | 88.6 | 24.5 | 164 | 242 | 156 |
| O=C(O)[C@@H]1[O][Sb](=[O])([O][Sb]2(=[O])[O][C@H]([C@H](O)CO)[C@H](O)[C@H](C(=O)O)[O]2)[O][C@H]([C@H](O)CO)[C@@H]1O (some centres undefined) [stibogluconate] + O=C(O)c1ccc2c(c1)nc(Nc1cccc(Cl)c1)c1ccncc12 [CX4945] (first compound 2 µM, partner dose 0.4 µM) | 109 | 133 | 160 | 86.1 | 161 | 79.9 | 108 | 190 | 125 | 62.3 | 99.8 | 98.9 | 61.4 | 126 | 132 | 71.9 | 199 | 38.2 | 95 |
| C=C(c1ccc(C(=O)O)cc1)c1cc2c(cc1C)C(C)(C)CCC2(C)C [Bexarotene] + C#Cc1cccc(Nc2ncnc3cc(OCCOC)c(OCCOC)cc23)c1 [erlotinib] (first compound 2 µM, partner dose 0.8 µM) | 96.6 | 108 | 121 | 118 | 365 | 114 | 98.1 | 62 | 132 | 64.9 | 142 | 60.5 | 155 | 72.8 | 91 | 133 | 102 | 87.7 | 187 |
| Nc1ncn([C@H]2C[C@H](O)[C@@H](CO)O2)c(=O)n1 [decitabine] + C[C@]1(c2nc3c(C(N)=O)cccc3[nH]2)CCCN1 [Veliparib] (first compound 0.1 µM, partner dose 1.4 µM) | 230 | 56.4 | 188 | 112 | 146 | 139 | 78.5 | 82 | 93.7 | 88.1 | 118 | 125 | 231 | 118 | 67.8 | 113 | 53.8 | 300 | 92.6 |
| CNC(=O)c1cc(Oc2ccc(NC(=O)Nc3ccc(Cl)c(C(F)(F)F)c3)cc2)ccn1 [sorafenib] + Cn1c(Nc2ccc(C(F)(F)F)cc2)nc2cc(Oc3ccnc(-c4ncc(C(F)(F)F)[nH]4)c3)ccc21 [CHIR265] (first compound 0.4 µM, partner dose 0.08 µM) | 214 | 105 | 37.9 | 197 | 96.4 | 55.6 | 110 | 136 | 111 | 71.2 | 145 | 90.6 | 84.3 | 110 | 269 | 245 | 292 | 127 | 172 |
| CN1CCN(c2ccc3nc(-c4c(N)c5c(F)cccc5[nH]c4=O)[nH]c3c2)CC1 [Dovitinib] + Cn1c(Nc2ccc(C(F)(F)F)cc2)nc2cc(Oc3ccnc(-c4ncc(C(F)(F)F)[nH]4)c3)ccc21 [CHIR265] (first compound 0.1 µM, partner dose 0.08 µM) | 86.7 | 84.1 | 265 | 274 | 108 | 45.5 | 139 | 23.7 | 76.9 | 190 | 218 | 109 | 48.1 | 58.8 | 37.6 | 407 | 104 | 23.3 | 157 |
| CN1CCN(c2ccc3nc(-c4c(N)c5c(F)cccc5[nH]c4=O)[nH]c3c2)CC1 [Dovitinib] + COc1ccc(Cl)c(Nc2nc3ccccc3nc2NS(=O)(=O)c2cccc(NC(=O)C(C)(C)N)c2)c1 [XL147] (first compound 0.1 µM, partner dose 0.8 µM) | 81 | 175 | 154 | 224 | 83.6 | 304 | 98.6 | 63.6 | 121 | 101 | 46.6 | 171 | 26.5 | 107 | 91.3 | 98.6 | 57 | 170 | 81.1 |
| Cc1cc(Nc2cc(N3CCN(C)CC3)nc(/C=C/c3ccccc3)n2)n[nH]1 + CN1CCN(c2ccc3nc(-c4c(N)c5c(F)cccc5[nH]c4=O)[nH]c3c2)CC1 [Dovitinib] (first compound 0.04 µM, partner dose 0.1 µM) | 128 | 90.3 | 112 | 97.9 | 76 | 58.7 | 109 | 31.8 | 225 | 191 | 98.5 | 61.4 | 110 | 56.1 | 51.8 | 128 | 264 | 54.4 | 98.1 |

As entered above:
Entry for Cc1cc(Nc2cc(N3CCN(C)CC3)nc(/C=C/c3ccccc3)n2)n[nH]1 + CN1CCN(c2ccc3nc(-c4c(N)c5c(F)cccc5[nH]c4=O)[nH]c3c2)CC1 [Dovitinib] (first compound 0.04 µM, partner dose 0.1 µM) under cleaved PARP positive nuclei fraction [18] [%]: 54.4
Entry for O=C(O)[C@@H]1[O][Sb](=[O])([O][Sb]2(=[O])[O][C@H]([C@H](O)CO)[C@H](O)[C@H](C(=O)O)[O]2)[O][C@H]([C@H](O)CO)[C@@H]1O (some centres undefined) [stibogluconate] + O=C(O)c1ccc2c(c1)nc(Nc1cccc(Cl)c1)c1ccncc12 [CX4945] (first compound 2 µM, partner dose 0.4 µM) under cleaved PARP positive nuclei fraction [15] [%]: 132
